The results are deposited in PubChem (AID1159506; NCATS, 2015).

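Luminescence from an EWS-FLI1 target-promoter (NR0B1) reporter, set against a CMV-promoter reporter, two days after silencing single genes in TC32 Ewing sarcoma cells. Each siRNA was applied at 20 nM. A z-score of the log NR0B1-over-CMV signal, less the median of siRNAs with the same seed; more negative means a stronger specific loss of the NR0B1 reporter.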

The strongest results of the screen are mostly left out here. Sequences are the guide (antisense) strand, without overhang.

Result for UCUCAUGAUACGUUGGAGG against CYP7A1 was seed-corrected z-score 0.1838.
Result for UUAACUCUCCGUCUCUUGC against LOC339192 was seed-corrected z-score -0.4105.
Result for UCAGUUUCAACUCAUUCUC against LMCD1 was seed-corrected z-score -0.3695.
Result for UUCCGUAGAAAUGCACGGC against SGTA was seed-corrected z-score -0.4249.
Result for UUGUCUAAAGUGUAGGUGG against ZNF197 was seed-corrected z-score -1.243.
Result for UUGUGAGUUGCGACCAGCC against LOC729866 was seed-corrected z-score 1.584.
Result for UUACUGAAACUUGUAAUUU against UBB was seed-corrected z-score 0.6196.
Result for UGAGAUGAUAUGCUCCACC against FBXO24 was seed-corrected z-score -0.03155.
Result for UUGCAUGAGAAGUCUAACC against LRCH3 was seed-corrected z-score 0.5992.
Result for UCGGCUUUUUCUCUGAUGC against MICALCL was seed-corrected z-score 0.6248.
Result for AAUGUGAGUAGCUCGAUUC against EMC3 was seed-corrected z-score 3.116.
Result for UUCCUGAUGAGGGACUUUG against SPRED1 was seed-corrected z-score 0.814.
Result for AAUCCUCAAAGUACACUCC against ZFP57 was seed-corrected z-score 0.01092.
Result for UUAUUUGGAAGUAAACUCC against CHCHD1 was seed-corrected z-score 0.2618.
Result for UAUCCUACCACACUGCUAC against KAZALD1 was seed-corrected z-score -0.4297.
Result for AUCGUCAUCCCAGUUAUCC against EIF3J was seed-corrected z-score -0.2181.
Result for UUCAAUUCCACCGUGAGUG against AOX1 was seed-corrected z-score -0.03511.
Result for UUUCUUCUUAGAGUGAAUC against SEPW1 was seed-corrected z-score 0.3758.
Result for UUCUCGAUGCAAGAUCUCC against ATP2C1 was seed-corrected z-score 1.069.
Result for UCUGAUCAUACCUUCAAGG against C10orf35 was seed-corrected z-score 0.02362.
Result for UGUCAGAUAAACAUUUCCU against CBX3P6 was seed-corrected z-score 1.61.
Result for UUGUUUUUAAUCCCGUCUC against ZNF806 was seed-corrected z-score -0.7193.
Result for UCCCUUAAGAGCAAUCAGC against LOC400870 was seed-corrected z-score -0.1359.
Result for UAUUAGGGCUUGAAGUUGC against IFT20 was seed-corrected z-score 0.03414.
Result for UUGGUUAUAAAGAUACUGG against SECISBP2 was seed-corrected z-score -1.502.
Result for UGUCCUUUCAAAGUCUUCU against FAM180A was seed-corrected z-score -1.549.
Result for UACUUUCGCAAUAUUAACC against TMX1 was seed-corrected z-score 0.2224.
Result for UGGAGUUGAACCAUCAAGC against PMPCB was seed-corrected z-score -1.113.
Result for AAUCUUUCAAUAGAAGCAG against LINC00614 was seed-corrected z-score 0.05219.
Result for AUUCCGAACAGCAACAAUG against DNAH6 was seed-corrected z-score -0.2553.
Result for AACUUGAUGAAUAAAGUCC against NUP133 was seed-corrected z-score -0.8598.
Result for UACUUGUGCUUGAUAAUCC against SLC35D2 was seed-corrected z-score -0.5996.
Result for UUUCCUUCCAAGUGAGUUG against RABGAP1L was seed-corrected z-score 0.08072.
Result for UCCACAAACAUUGCAUUCG against ZNF146 was seed-corrected z-score -0.02366.
Result for UCGGCACUGAAAACGAUGC against GRM5 was seed-corrected z-score 0.628.
Result for UUUCUGGGAAUAUUUGGUG against EEF1A1P15 was seed-corrected z-score 1.02.
Result for UUCUCAACCAGUAGCGGUG against PIKFYVE was seed-corrected z-score -1.49.
Result for UCUCUUCUGAGUAUAACUG against ZNF155 was seed-corrected z-score -0.02935.
Result for AAAUCGACUAAAAUUGCUU against DDA1 was seed-corrected z-score 0.2356.
Result for UUCUUGGUAGGAGAUGAGG against AHNAK2 was seed-corrected z-score -0.7841.
Result for ACUCUCAUCAGAGCAGUUG against TEX43 was seed-corrected z-score 1.307.
Result for AAACGAAAGGUAAAAAUCC against FAM155A was seed-corrected z-score 1.195.
Result for AACACUUCUAUGGUUUUGG against MRPL48 was seed-corrected z-score 0.3005.
Result for UUCCCGAAAAGGUUCUGGG against GRAMD4 was seed-corrected z-score -0.5462.
Result for AUUCCGUACAGUUUCACUC against PCDHGA9 was seed-corrected z-score -0.1524.
Result for UGUCGGAUGAGAGUGGUGU against AMOTL2 was seed-corrected z-score -0.115.
Result for UUAUACACAAGCAAGCUGG against PPP1R14A was seed-corrected z-score 1.11.
Result for AAUAUUAUUCUCUGCAUCC against IQCJ was seed-corrected z-score 0.3713.
Result for AUCAUUCUCUUGUCCAUCG against MACROD2 was seed-corrected z-score 1.515.

Some entries from above, unchanged:

strand	gene	seed-corrected z-score
UGGAGUUGAACCAUCAAGC	PMPCB	-1.113
UUGGUUAUAAAGAUACUGG	SECISBP2	-1.502
UAUUAGGGCUUGAAGUUGC	IFT20	0.03414
AAAUCGACUAAAAUUGCUU	DDA1	0.2356